{"source": "patent US7998976B2", "about": "“Certain chemical entities, compositions and methods” (Cytokinetics, Inc., priority 2008, dated 2011)", "note": "At least one structure is not confirmed: it was looked up by name or label, or the drawing left a doubt.", "data": [{"system": "skeletal sarcomere (skeletal myosin with actin, tropomyosin, and troponin complex)", "test": "Screen of ATP hydrolysis rate of myosin with calcium-regulated actin filament (actin/tropomyosin/troponin), PK/LDH/NADH coupled enzyme system", "type": "biochemical", "conditions": "screen conducted at pCa=6.5; unit not given", "protocol": "For example, test compounds can be assayed in a highly parallel fashion by using multiwell plates by placing the compounds either individually in wells or testing them in mixtures. Assay components including the target protein complex, coupling enzymes and substrates, and ATP can then be added to the wells and the absorbance or fluorescence of each well of the plate can be measured with a plate reader.\nIn some embodiments, the method uses a 384 well plate format and a 25 μL reaction volume. A pyruvate kinase/lactate dehydrogenase coupled enzyme system (Huang T G and Hackney D D. (1994) J Biol Chem 269(23):16493-501) can be used to measure the rate of ATP hydrolysis in each Well. As will be appreciated by those in the art, the assay components are added in buffers and reagents. The incubation periods can be optimized to give adequate detection signals over the background. The assay can be done in real time giving the kinetics of ATP hydrolysis which increases the signal to noise ratio of the assay.\nActin was purified by first preparing an ether powder of cardiac muscle (Zot H G and Potter J D. (1981) Preparative Biochemistry 11:381-395) as described below. Subsequently, actin was cycled between the filamentous and soluble state through rounds of centrifugation and dialysis (Spudich J A and Watt S. (1971) J. Biol. Chem. 246:4866-4871). It was stored in the filamentous state at 4° C.\nTropomyosin was extracted from the ether powder and separated from the other proteins based on pH dependent precipitations followed by successive ammonium sulfate cuts at 53% and 65% (Smillie L B. (1981) Methods Enzymol 85 Pt B:234-41). The troponins were isolated as an intact complex of TnC, TnT, and TnI. Ether powder is extracted in a high salt buffer. […]\nTo measure the generation of ADP during the reaction, a pyruvate kinase/lactate dehydrogenase/NADH coupled enzyme system (PK/LDH) is added to the actin. […] The plates are read in real time so that kinetic curves are obtained. […]", "values": [{"smiles": "C=C(C)c1ccc2nc(O)n(C(CC)CC)c2n1", "note": "[3-(ethylpropyl)-5-(1-methylvinyl)imidazo[5,4-b]pyridin-2-ol]", "AC1.4 Median": 1.413}, {"smiles": "CCC(CC)n1c(O)nc2ccc(C(C)C)nc21", "note": "[3-(ethylpropyl)-5-(methylethyl)imidazo[5,4-b]pyridin-2-ol]", "AC1.4 Median": 36.470}, {"smiles": "C/C=C/c1ccc2nc(O)n(C(CC)CC)c2n1", "note": "[5-((1E)prop-1-enyl)-3-(ethylpropyl)imidazo[5,4-b]pyridin-2-ol]", "AC1.4 Median": 11.911}]}]}
